According to article PMC6753076:
These are yes or no findings as the source states them, for the method shown. Binding seen in cells or lysates may run through a third protein. Some binding calls cover weakened binding; strength is not graded here. For part of these data: Where a sequence is shown, tags or fusion partners need not be part of it.

Sequences of proteins named here, by UniProt entry; tags and fusion partners are left off.
UniProt P49429: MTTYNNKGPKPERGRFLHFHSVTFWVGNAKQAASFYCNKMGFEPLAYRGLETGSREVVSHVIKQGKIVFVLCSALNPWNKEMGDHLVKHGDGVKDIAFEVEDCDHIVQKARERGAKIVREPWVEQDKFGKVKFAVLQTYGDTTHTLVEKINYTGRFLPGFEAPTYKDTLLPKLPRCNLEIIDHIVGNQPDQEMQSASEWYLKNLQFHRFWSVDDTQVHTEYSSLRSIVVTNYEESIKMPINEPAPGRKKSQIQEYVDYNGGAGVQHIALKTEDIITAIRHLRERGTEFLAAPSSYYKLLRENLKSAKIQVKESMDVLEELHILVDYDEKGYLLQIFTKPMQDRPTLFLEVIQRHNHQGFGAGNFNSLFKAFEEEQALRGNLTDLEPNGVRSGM

T1: Flag-PELI1 (CMV-Flag-Peli1), wild type (human) (UniProt Q96FA3)
T1 sequence: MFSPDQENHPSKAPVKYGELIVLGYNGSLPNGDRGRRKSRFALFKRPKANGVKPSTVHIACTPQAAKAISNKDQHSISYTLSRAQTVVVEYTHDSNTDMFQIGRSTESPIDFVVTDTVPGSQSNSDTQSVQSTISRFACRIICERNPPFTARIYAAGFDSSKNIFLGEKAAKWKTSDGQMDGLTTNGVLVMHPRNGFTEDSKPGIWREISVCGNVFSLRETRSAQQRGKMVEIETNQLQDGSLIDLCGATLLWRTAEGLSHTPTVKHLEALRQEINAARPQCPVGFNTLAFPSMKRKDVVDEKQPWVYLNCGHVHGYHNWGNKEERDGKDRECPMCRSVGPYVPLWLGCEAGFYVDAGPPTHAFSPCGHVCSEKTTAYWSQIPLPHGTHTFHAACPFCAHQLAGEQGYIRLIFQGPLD


Biological target: T1, Flag-PELI1 (CMV-Flag-Peli1), wild type (human)
Experiment: co-IP; HEK293T transfected with the indicated plasmids; immunoprecipitation with an anti-Flag antibody

Row | Binder | binding
1 | His/V5-HPD T2A (protein, UniProt P32754-1 1-393) MATYSDKGAKPERGRFLHFHSVTFWVGNAKQATSFYCSKMGFEPLAYRGLETGSREVVSHVIKQGKIVFVLSSALNPWNKEMGDHLVKHGDGVKDIAFEVEDCDYIVQKARERGAKIMREPWVEQDKFGKVKFAVLQTYGDTTHTLVEKMNYIGQFLPGYEAPAFMDPLLPKLPKCSLEMIDHIVGNQPDQEMVSASEWYLKNLQFHRFWSVDDTQVHTEYSSLRSIVVANYEESIKMPINEPAPGKKKSQIQEYVDYNGGAGVQHIALKTEDIITAIRHLRERGLEFLSVPSTYYKQLREKLKTAKIKVKENIDALEELKILVDYDEKGYLLQIFTKPVQDRPTLFLEVIQRHNHQGFGAGNFNSLFKAFEEEQNLRGNLTNMETNGVVPGM | binds
2 | His/V5-HPD T219A (protein, UniProt P32754-1 1-393) MTTYSDKGAKPERGRFLHFHSVTFWVGNAKQATSFYCSKMGFEPLAYRGLETGSREVVSHVIKQGKIVFVLSSALNPWNKEMGDHLVKHGDGVKDIAFEVEDCDYIVQKARERGAKIMREPWVEQDKFGKVKFAVLQTYGDTTHTLVEKMNYIGQFLPGYEAPAFMDPLLPKLPKCSLEMIDHIVGNQPDQEMVSASEWYLKNLQFHRFWSVDDTQVHAEYSSLRSIVVANYEESIKMPINEPAPGKKKSQIQEYVDYNGGAGVQHIALKTEDIITAIRHLRERGLEFLSVPSTYYKQLREKLKTAKIKVKENIDALEELKILVDYDEKGYLLQIFTKPVQDRPTLFLEVIQRHNHQGFGAGNFNSLFKAFEEEQNLRGNLTNMETNGVVPGM | binds
3 | His-HPD T382A (protein, UniProt P32754-1 1-393) MTTYSDKGAKPERGRFLHFHSVTFWVGNAKQATSFYCSKMGFEPLAYRGLETGSREVVSHVIKQGKIVFVLSSALNPWNKEMGDHLVKHGDGVKDIAFEVEDCDYIVQKARERGAKIMREPWVEQDKFGKVKFAVLQTYGDTTHTLVEKMNYIGQFLPGYEAPAFMDPLLPKLPKCSLEMIDHIVGNQPDQEMVSASEWYLKNLQFHRFWSVDDTQVHTEYSSLRSIVVANYEESIKMPINEPAPGKKKSQIQEYVDYNGGAGVQHIALKTEDIITAIRHLRERGLEFLSVPSTYYKQLREKLKTAKIKVKENIDALEELKILVDYDEKGYLLQIFTKPVQDRPTLFLEVIQRHNHQGFGAGNFNSLFKAFEEEQNLRGNLANMETNGVVPGM | no binding

Continued, values first:

Row | binding | Binder
4 | binds | His/V5-HPD T3A (protein, UniProt P32754-1 1-393) MTAYSDKGAKPERGRFLHFHSVTFWVGNAKQATSFYCSKMGFEPLAYRGLETGSREVVSHVIKQGKIVFVLSSALNPWNKEMGDHLVKHGDGVKDIAFEVEDCDYIVQKARERGAKIMREPWVEQDKFGKVKFAVLQTYGDTTHTLVEKMNYIGQFLPGYEAPAFMDPLLPKLPKCSLEMIDHIVGNQPDQEMVSASEWYLKNLQFHRFWSVDDTQVHTEYSSLRSIVVANYEESIKMPINEPAPGKKKSQIQEYVDYNGGAGVQHIALKTEDIITAIRHLRERGLEFLSVPSTYYKQLREKLKTAKIKVKENIDALEELKILVDYDEKGYLLQIFTKPVQDRPTLFLEVIQRHNHQGFGAGNFNSLFKAFEEEQNLRGNLTNMETNGVVPGM
5 | binds | His/V5-HPD T138A (protein, UniProt P32754-1 1-393) MTTYSDKGAKPERGRFLHFHSVTFWVGNAKQATSFYCSKMGFEPLAYRGLETGSREVVSHVIKQGKIVFVLSSALNPWNKEMGDHLVKHGDGVKDIAFEVEDCDYIVQKARERGAKIMREPWVEQDKFGKVKFAVLQAYGDTTHTLVEKMNYIGQFLPGYEAPAFMDPLLPKLPKCSLEMIDHIVGNQPDQEMVSASEWYLKNLQFHRFWSVDDTQVHTEYSSLRSIVVANYEESIKMPINEPAPGKKKSQIQEYVDYNGGAGVQHIALKTEDIITAIRHLRERGLEFLSVPSTYYKQLREKLKTAKIKVKENIDALEELKILVDYDEKGYLLQIFTKPVQDRPTLFLEVIQRHNHQGFGAGNFNSLFKAFEEEQNLRGNLTNMETNGVVPGM
6 | binds | His/V5-HPD T271A (protein, UniProt P32754-1 1-393) MTTYSDKGAKPERGRFLHFHSVTFWVGNAKQATSFYCSKMGFEPLAYRGLETGSREVVSHVIKQGKIVFVLSSALNPWNKEMGDHLVKHGDGVKDIAFEVEDCDYIVQKARERGAKIMREPWVEQDKFGKVKFAVLQTYGDTTHTLVEKMNYIGQFLPGYEAPAFMDPLLPKLPKCSLEMIDHIVGNQPDQEMVSASEWYLKNLQFHRFWSVDDTQVHTEYSSLRSIVVANYEESIKMPINEPAPGKKKSQIQEYVDYNGGAGVQHIALKAEDIITAIRHLRERGLEFLSVPSTYYKQLREKLKTAKIKVKENIDALEELKILVDYDEKGYLLQIFTKPVQDRPTLFLEVIQRHNHQGFGAGNFNSLFKAFEEEQNLRGNLTNMETNGVVPGM
7 | binds | His/V5-HPD T337A (protein, UniProt P32754-1 1-393) MTTYSDKGAKPERGRFLHFHSVTFWVGNAKQATSFYCSKMGFEPLAYRGLETGSREVVSHVIKQGKIVFVLSSALNPWNKEMGDHLVKHGDGVKDIAFEVEDCDYIVQKARERGAKIMREPWVEQDKFGKVKFAVLQTYGDTTHTLVEKMNYIGQFLPGYEAPAFMDPLLPKLPKCSLEMIDHIVGNQPDQEMVSASEWYLKNLQFHRFWSVDDTQVHTEYSSLRSIVVANYEESIKMPINEPAPGKKKSQIQEYVDYNGGAGVQHIALKTEDIITAIRHLRERGLEFLSVPSTYYKQLREKLKTAKIKVKENIDALEELKILVDYDEKGYLLQIFAKPVQDRPTLFLEVIQRHNHQGFGAGNFNSLFKAFEEEQNLRGNLTNMETNGVVPGM
8 | binds | His/V5-HPD T23A (protein, UniProt P32754-1 1-393) MTTYSDKGAKPERGRFLHFHSVAFWVGNAKQATSFYCSKMGFEPLAYRGLETGSREVVSHVIKQGKIVFVLSSALNPWNKEMGDHLVKHGDGVKDIAFEVEDCDYIVQKARERGAKIMREPWVEQDKFGKVKFAVLQTYGDTTHTLVEKMNYIGQFLPGYEAPAFMDPLLPKLPKCSLEMIDHIVGNQPDQEMVSASEWYLKNLQFHRFWSVDDTQVHTEYSSLRSIVVANYEESIKMPINEPAPGKKKSQIQEYVDYNGGAGVQHIALKTEDIITAIRHLRERGLEFLSVPSTYYKQLREKLKTAKIKVKENIDALEELKILVDYDEKGYLLQIFTKPVQDRPTLFLEVIQRHNHQGFGAGNFNSLFKAFEEEQNLRGNLTNMETNGVVPGM

Biological target: HPD, endogenous mouse (mouse (endogenous in primary hepatocytes)) (UniProt P49429)
Experiment: co-IP; WT or Ttc36-/- mouse primary hepatocytes, MG-132 (10 μM) 12 h; immunoprecipitation with an anti-HPD antibody

Row | binding | Binder
9 | binds | PELI1, endogenous mouse (protein, UniProt Q8C669 1-418) MFSPDQENHPSKAPVKYGELIVLGYNGSLPNGDRGRRKSRFALFKRPKANGVKPSTVHIACTPQAAKAISNKDQHSISYTLSRAQTVVVEYTHDSNTDMFQIGRSTESPIDFVVTDTVPGSQSNSDTQSVQSTISRFACRIICERSPPFTARIYAAGFDSSKNIFLGEKAAKWKTSDGQMDGLTTNGVLVMHPRNGFTEDSKPGIWREISVCGNVFSLRETRSAQQRGKMVEIETNQLQDGSLIDLCGATLLWRTAEGLSHTPTVKHLEALRQEINAARPQCPVGFNTLAFPSMKRKDVVDEKQPWVYLNCGHVHGYHNWGNKEERDGKDRECPMCRSVGPYVPLWLGCEAGFYVDAGPPTHAFSPCGHVCSEKTTAYWSQIPLPHGTHTFHAACPFCAHQLAGEQGYIRLIFQGPLD
